The record followed here is patent US20170183640A1 (WISCONSIN ALUMNI RESEARCH FOUNDATION, published 2017).

For assay [1], the target named is φW39 ΔN21 Ref (bacteriophage φW39) (UniProt P35926). The assay can be described thus: DSG crosslinking, SDS-PAGE, self-association.
For assay [2] the target is unchanged. As to the kind of experiment: analytical size exclusion (FIG. 9), self-association, Example 6. Background: Size exclusion chromatography separates by hydrodynamic size, large species first.
The target is the same in assay [3]. As to the kind of experiment: non-reducing SDS-PAGE with or without 10 mM DTT, self-association.
Assay [4] concerns the target φW39 wild type Ref (φW39 phage full length Ref protein) (bacteriophage φW39) (UniProt P35926). The assay can be described thus: DSG crosslinking, SDS-PAGE, self-association.
Assay [5] shares this target. As to the kind of experiment: non-reducing SDS-PAGE with or without 10 mM DTT, self-association.
For assay [6], the target named is φW39 ΔN47 Ref (bacteriophage φW39) (UniProt P35926). As to the kind of experiment: DSG crosslinking, SDS-PAGE, self-association.
Assay [7] has the same target. As to the kind of experiment: analytical size exclusion (FIG. 9), self-association, Example 6.
For assay [8] the target is unchanged. The assay can be described thus: non-reducing SDS-PAGE with or without 10 mM DTT, self-association.

Results are given in words; binding and its absence hold for the method and conditions named.

B1: φW39 ΔN21 Ref (enzyme)
chain: AIARQREKLADPAWRESQYQKMRDSIDRRIAKQKERPPASKTRKSAVKIKSRGLKGRTPTAEERTIANALGTLPCIACYMHGVISEEVSLHHISGRTAPGCHKKQLPLCRWHHQHAAPAEVREKYPWLVPVHADGVVGGKKEFTLLNKSEMELLADAYEMANIMH
notes: Plasmid pEAW886; The construct starts with a Met codon from the NdeI site
As to B1, the binding result in assay [1], in assay [2] and in assay [3] was “no binding” throughout.

B2: φW39 wild type Ref (φW39 phage full length Ref protein) (enzyme)
chain: MKTIEQKLEQRREWQKAARERAIARQREKLADPAWRESQYQKMRDSIDRRIAKQKERPPASKTRKSAVKIKSRGLKGRTPTAEERTIANALGTLPCIACYMHGVISEEVSLHHISGRTAPGCHKKQLPLCRWHHQHAAPAEVREKYPWLVPVHADGVVGGKKEFTLLNKSEMELLADAYEMANIMH
notes: Full-length native protein
Turning to B2, the binding entry in assay [4] and in assay [5] was “no binding” throughout.

B3: φW39 ΔN47 Ref (enzyme)
chain: DRRIAKQKERPPASKTRKSAVKIKSRGLKGRTPTAEERTIANALGTLPCIACYMHGVISEEVSLHHISGRTAPGCHKKQLPLCRWHHQHAAPAEVREKYPWLVPVHADGVVGGKKEFTLLNKSEMELLADAYEMANIMH
notes: Plasmid pEAW865; The construct starts with a Met codon from the NdeI site
For the molecule B3, the binding result in assay [6], in assay [7] and in assay [8] was “no binding” each time.
